PubChem BioAssay AID1259405 – NCATS – 2018
This is one part, drawn at random, of about 50,000 deposited reagents. About 4,000 of all reagents (8%) count as active. 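Mouse siRNA library applied to hamster cells; one well for each siRNA.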 The numbers tell different reagents against one gene apart.

Purpose: 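Knock-downs that lift recombinant protein yield in hamster ovary cells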 (primary screen)
Cells: Chinese hamster CHO-K1 ovary cells with stable secreted eGFP expression
Knock-down reagent: single siRNA against mouse genes, 0.8 pmol siRNA per well (2 µl of 400 nM stock)
Duration: 3 days
Detection: 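Percent of the per-plate non-targeting control median for intracellular GFP per well by laser scanning cytometry and for cell viability by ATP luminescence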
Direction: GFP, % of control: higher = more GFP per well, higher productivity; viability (ATP), % of control: higher = more viable cells (more ATP)
Rule for the call: 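Called active when intracellular GFP, relative to negative control, is at or above 120%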

After knock-down of Lrp4 (low density lipoprotein receptor-related protein 4) #1 the results were GFP, % of control 73.3; viability (ATP), % of control 52.1; inactive.
Lrp4 (low density lipoprotein receptor-related protein 4) #2 scored GFP, % of control 72.1; viability (ATP), % of control 86.8; inactive.
Lrp4 (low density lipoprotein receptor-related protein 4) #3 gave GFP, % of control 69; viability (ATP), % of control 74.8; inactive.
Against Spcs1 (signal peptidase complex subunit 1 homolog (S. cerevisiae)) #1 the deposit lists GFP, % of control 84; viability (ATP), % of control 87.4; inactive.
For Spcs1 (signal peptidase complex subunit 1 homolog (S. cerevisiae)) #2 the deposit lists GFP, % of control 67; viability (ATP), % of control 73.6; inactive.
For Spcs1 (signal peptidase complex subunit 1 homolog (S. cerevisiae)) #3, the values are GFP, % of control 83.6; viability (ATP), % of control 86.4; inactive.
With knock-down of Rrbp1 (ribosome binding protein 1) #1, the screen gave GFP, % of control 53.9; viability (ATP), % of control 38.4; inactive.
For Rrbp1 (ribosome binding protein 1) #2, the values are GFP, % of control 120; viability (ATP), % of control 110; active.
After knock-down of Rrbp1 (ribosome binding protein 1) #3, the record shows GFP, % of control 106; viability (ATP), % of control 81.7; inactive.

Hits, among the entries above:
Rrbp1 (ribosome binding protein 1) #2: GFP, % of control = 120; viability (ATP), % of control = 110; Call = active

Further results follow:
For Aste1 (asteroid homolog 1) #1 the deposit lists GFP, % of control 61.1; viability (ATP), % of control 104; inactive.
Against Aste1 (asteroid homolog 1) #2 the deposit lists GFP, % of control 95; viability (ATP), % of control 93.7; inactive.
Depletion of Aste1 (asteroid homolog 1) #3 gave: GFP, % of control 127; viability (ATP), % of control 76.2; active.
For Defb41 (defensin beta 41) #1, the values are GFP, % of control 93.2; viability (ATP), % of control 114; inactive.
For Defb41 (defensin beta 41) #2 the deposit lists GFP, % of control 87.8; viability (ATP), % of control 70; inactive.
After knock-down of Defb41 (defensin beta 41) #3, the record shows GFP, % of control 63; viability (ATP), % of control 89.3; inactive.
Against Abi3 (ABI family member 3) #1, the values are GFP, % of control 94.4; viability (ATP), % of control 74.7; inactive.
After knock-down of Abi3 (ABI family member 3) #2 the results were GFP, % of control 102; viability (ATP), % of control 97; inactive.
Abi3 (ABI family member 3) #3 gave GFP, % of control 93.9; viability (ATP), % of control 111; inactive.
